Results as given in article PMC7862700.
Some of the results follow. The exact form of the protein is not confirmed.

Each sequence was assayed against T1, ETS1 (UniProt P14921) (assay: DAPPL (digital affinity profiling via proximity ligation, sequencing)). Conditions: 10 mM Tris-HCl pH 7.5, 50 mM NaCl, 1 mM DTT, 4% glycerol, room temperature, 30 min; GST-TFs on glutathione beads, 16-mer random dsDNA library, 0.1% …; high values mean tight binding; double strand, one strand shown; scale: fold enrichment (6-mer frequency, TF over GST control).
T1 sequence: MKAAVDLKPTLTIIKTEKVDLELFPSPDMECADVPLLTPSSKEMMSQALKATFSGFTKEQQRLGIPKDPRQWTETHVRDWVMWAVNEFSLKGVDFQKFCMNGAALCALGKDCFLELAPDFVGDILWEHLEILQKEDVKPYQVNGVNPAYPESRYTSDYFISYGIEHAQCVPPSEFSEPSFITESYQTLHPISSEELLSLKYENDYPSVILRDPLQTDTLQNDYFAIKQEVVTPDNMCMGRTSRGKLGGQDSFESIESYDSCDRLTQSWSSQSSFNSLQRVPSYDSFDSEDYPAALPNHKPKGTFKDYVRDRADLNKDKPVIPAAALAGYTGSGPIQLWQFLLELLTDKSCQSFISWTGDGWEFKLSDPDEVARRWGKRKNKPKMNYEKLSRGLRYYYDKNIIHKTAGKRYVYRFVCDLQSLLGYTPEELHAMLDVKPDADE
TATGGC showed a binding signal of 1.3. Sequence CTTCCT has a binding signal of 3.23. For TCTGTC, the binding signal was 1.13. Sequence TGAACT has a binding signal of 1.2. ACATTC gave a binding signal of 1.34. Work on ACTTAA yielded a binding signal of 1.15. With CTCTAG the binding signal was 1.36. CTAAAG was tested, and the binding signal was 1.29. In the case of GGTCTT, the binding signal is reported as 1.13. For CTGATA, the binding signal was 1.1. Work on TCGCTC yielded a binding signal of 1.22. GGTTTA gave a binding signal of 1.03. In the case of ATTTGA, the binding signal is reported as 1.25. Sequence GTCTTA has a binding signal of 1.26. For ATCATG, the binding signal was 1.13. Sequence AAGTTT has a binding signal of 1.48. AATTGT gave a binding signal of 1.3. TTGGGT gave a binding signal of 1.15. With ATTCTA the binding signal was 1.21. Sequence GGTCCC has a binding signal of 1.22. Sequence TTATTT has a binding signal of 1.37. In the case of TATTAT, the binding signal is reported as 1.43. With TGGTGT the binding signal was 1.23. AAAGAC showed a binding signal of 1.11. TCCCAC showed a binding signal of 1.4. In the case of TGTTCT, the binding signal is reported as 1.43. For CCATTC, the binding signal was 1.17. Sequence CGCCTT has a binding signal of 1.46. Work on TAGTCT yielded a binding signal of 1.21. With TCCCCT the binding signal was 1.62. For CAACAA, the binding signal was 1.09. AGCTTC was tested, and the binding signal was 1.83. For CTAAGT, the binding signal was 1.19. AATGGG gave a binding signal of 1.21. Work on ACATGG yielded a binding signal of 1.08. Work on GTACTC yielded a binding signal of 0.97. Sequence TAACAT has a binding signal of 1.43. TTTATA showed a binding signal of 1.38. With TTTACG the binding signal was 1.34.
